Laboratory results: PubChem BioAssay AID493246 (Drosophila RNAi Screening Center, 2011)

Aim: 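Identify essential fly genes by loss of cell viability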 (primary screen)
Cells: Drosophila Kc and S2R+ cells
Knock-down reagent: long dsRNA against Drosophila genes
Read-out: 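Cell number per well after knock-down, printed as raw plate values; calls were based on per-plate z-scores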
Scale: Kc cell number and S2R+ cell number: higher = more cells remaining
Rule for the call: 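Counted as a hit if cell number falls by a z-score of at least 3 within its plate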
The screen tested about 21,000 reagents; shown is an unselected part of those that have a named target and a result. In the full data, 429 (2%) were called active. 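Values are raw and not normalised between plates; calls rest on per-plate z-scores that were not deposited.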 Names joined by + are all predicted targets of the reagent. The record does not give: the amount of reagent, the time to read-out.

gene,DRSC id,"Kc cell number, rep 1","Kc cell number, rep 2","S2R+ cell number, rep 1","S2R+ cell number, rep 2",call
RPA3 (GeneID 32113),DRSC19658,1.56e6,1.56e6,1.01e6,1.11e6,inactive
CG34007 (GeneID 3885610),DRSC01790,5.41e5,,8.36e5,,inactive
CG32137 (GeneID 39537),DRSC10271,1.67e6,1.72e6,1.35e6,1.47e6,inactive
CG32137 (GeneID 39537),DRSC10272,2.00e6,1.81e6,1.10e6,1.18e6,inactive
CG9550 (GeneID 33913),DRSC03262,1.63e6,1.54e6,1.23e6,1.42e6,inactive
TH1 (GeneID 32607),DRSC20289,6.47e5,,8.90e5,,inactive
MED28 (GeneID 43079),DRSC15721,1.88e6,2.05e6,1.07e6,1.20e6,inactive
Ptp10D (GeneID 32115),DRSC20272,1.54e6,1.45e6,1.03e6,1.04e6,inactive
aust (GeneID 34244),DRSC02558,1.46e6,1.56e6,1.14e6,1.33e6,inactive
Pfdn2 (GeneID 46121),DRSC10618,1.43e6,1.35e6,1.20e6,1.31e6,inactive
comt (GeneID 47091),DRSC20319,1.59e6,1.59e6,8.37e5,9.71e5,inactive
Syn1 (GeneID 40424),DRSC11803,1.30e6,1.32e6,1.32e6,1.40e6,inactive
Syn1 (GeneID 40424),DRSC11804,1.28e6,1.26e6,1.28e6,1.35e6,inactive
B-H1 (GeneID 32724),DRSC19334,1.28e6,1.22e6,8.06e5,9.08e5,inactive
Cp38 (GeneID 31788),DRSC18453,1.57e6,1.53e6,1.08e6,1.19e6,inactive
Muc18B (GeneID 32913),DRSC20064,1.50e6,1.49e6,1.05e6,1.13e6,inactive
Mink (GeneID 42982),DRSC14291,1.54e6,1.62e6,1.20e6,1.30e6,inactive
Ube3a (GeneID 39266),DRSC10600,1.31e6,1.40e6,1.17e6,1.12e6,inactive
CG7556 (GeneID 32902),DRSC20052,2.02e6,2.09e6,1.12e6,1.24e6,inactive
hig (GeneID 35949),DRSC07628,1.48e6,1.53e6,9.77e5,1.05e6,inactive
BomT3 (GeneID 42598),DRSC13537,1.43e6,1.38e6,1.03e6,1.08e6,inactive
BomT3 (GeneID 42598),DRSC15871,1.48e6,1.43e6,1.11e6,1.23e6,inactive
del (GeneID 35380),DRSC03170,1.38e6,1.47e6,1.05e6,1.11e6,inactive
Ddrgk1 (GeneID 42516),DRSC15897,1.55e6,1.65e6,1.21e6,1.29e6,inactive
Pfrx (GeneID 32938),DRSC18856,1.73e6,1.73e6,1.13e6,1.32e6,inactive
Pfrx (GeneID 32938),DRSC19315,1.20e6,1.45e6,1.12e6,1.26e6,inactive
CG8908 (GeneID 37293),DRSC07297,1.59e6,1.64e6,1.24e6,1.38e6,inactive
CG18661 (GeneID 50438),DRSC02690,1.56e6,1.64e6,1.23e6,1.40e6,inactive

Limited to “Kc cell number, rep 2” (8 entries from above):
B-H1 (GeneID 32724) [DRSC19334]: 1.22e6
Cp38 (GeneID 31788) [DRSC18453]: 1.53e6
Muc18B (GeneID 32913) [DRSC20064]: 1.49e6
Mink (GeneID 42982) [DRSC14291]: 1.62e6
Ube3a (GeneID 39266) [DRSC10600]: 1.40e6
CG7556 (GeneID 32902) [DRSC20052]: 2.09e6
hig (GeneID 35949) [DRSC07628]: 1.53e6
BomT3 (GeneID 42598) [DRSC13537]: 1.38e6

The list goes on:
gene,DRSC id,"Kc cell number, rep 1","Kc cell number, rep 2","S2R+ cell number, rep 1","S2R+ cell number, rep 2",call
CG7685 (GeneID 42220),DRSC16285,1.35e6,1.32e6,8.93e5,1.02e6,inactive
Lamtor2 + CG30120,DRSC05726,5.36e5,,8.00e5,,inactive
Lamtor2 + CG30120,DRSC06922,1.54e6,1.61e6,1.17e6,1.30e6,inactive
CG9458 (GeneID 41214),DRSC16495,1.59e6,1.63e6,1.33e6,1.37e6,inactive
Polr3K + Tcs1,DRSC05988,1.71e6,9.17e5,1.02e6,1.24e6,inactive
adp (GeneID 37073),DRSC06916,1.42e6,1.45e6,1.28e6,1.30e6,inactive
sug (GeneID 36424),DRSC06855,1.44e6,1.47e6,1.27e6,1.31e6,inactive
Adi1 (GeneID 326189),DRSC10945,1.47e6,1.53e6,1.26e6,1.37e6,inactive
GramD1B (GeneID 33552),DRSC00426,1.56e6,1.48e6,1.17e6,1.32e6,inactive
GramD1B (GeneID 33552),DRSC00591,1.21e6,1.28e6,1.03e6,1.06e6,inactive
Ugt303B3 (GeneID 42774),DRSC14199,1.60e6,1.53e6,1.05e6,1.14e6,inactive
Cpr56F (GeneID 37299),DRSC07326,1.57e6,1.56e6,1.23e6,1.36e6,inactive
ich (GeneID 41069),DRSC12715,1.47e6,1.59e6,1.09e6,1.33e6,inactive
ich (GeneID 41069),DRSC14448,1.55e6,1.76e6,1.30e6,1.40e6,inactive
CG18622 (GeneID 42044),DRSC15360,1.37e6,1.34e6,1.16e6,1.27e6,inactive
CG16721 (GeneID 31520),DRSC18113,5.51e5,,8.99e5,,inactive
Atpalpha (GeneID 48971),DRSC14119,1.64e6,1.76e6,1.23e6,1.33e6,inactive
SmB (GeneID 34426),DRSC03437,1.08e6,1.20e6,8.31e5,9.44e5,inactive
CG14511 (GeneID 43445),DRSC14863,1.49e6,1.47e6,1.04e6,1.16e6,inactive
hng3 (GeneID 38090),DRSC08367,1.22e6,1.34e6,1.14e6,1.30e6,inactive
dsh (GeneID 32078),DRSC19803,1.46e6,1.51e6,1.01e6,1.12e6,inactive
Ugt302E1 (GeneID 53508),DRSC15635,1.53e6,1.45e6,1.22e6,1.33e6,inactive
eIF5B (GeneID 44261),DRSC08429,1.57e6,1.52e6,9.64e5,1.34e6,inactive
eIF5B (GeneID 44261),DRSC08710,1.84e6,1.75e6,9.65e5,1.32e6,inactive
SCCRO4 (GeneID 40231),DRSC10671,1.52e6,1.61e6,1.26e6,1.36e6,inactive
E2f1 (GeneID 42550),DRSC16655,1.27e6,1.19e6,4.88e5,5.49e5,active
CG17784 (GeneID 42909),DRSC15268,1.78e6,1.67e6,1.04e6,1.12e6,inactive
Dronc (GeneID 39173),DRSC11231,1.31e6,1.29e6,1.47e6,1.18e6,inactive
Aatf (GeneID 33943),DRSC02131,1.44e6,1.35e6,1.24e6,1.28e6,inactive
apt (GeneID 37734),DRSC04671,1.28e6,1.48e6,7.28e5,7.41e5,inactive
Ugt49C1 (GeneID 37421),DRSC04252,1.48e6,1.54e6,1.36e6,3.03e5,inactive
CG12129 (GeneID 36044),DRSC06105,1.34e6,1.38e6,1.10e6,1.16e6,inactive
CG11227 (GeneID 33071),DRSC20476,1.46e6,1.49e6,1.12e6,1.17e6,inactive
asrij (GeneID 37637),DRSC04175,1.50e6,1.57e6,1.29e6,1.43e6,inactive
Snx17 (GeneID 34354),DRSC02884,1.44e6,1.45e6,1.18e6,1.27e6,inactive
CG8701 (GeneID 35812),DRSC07237,1.29e6,1.37e6,1.13e6,1.18e6,inactive
CG13083 (GeneID 35230),DRSC02187,1.52e6,1.61e6,1.32e6,3.51e5,inactive
CG7016 (GeneID 42968),DRSC16174,1.60e6,1.71e6,1.01e6,1.02e6,inactive
MED1 (GeneID 40403),DRSC11808,1.76e6,1.84e6,1.16e6,1.24e6,inactive
fidipidine (GeneID 36808),DRSC07618,1.50e6,1.56e6,1.15e6,1.27e6,inactive
Ranbp16 (GeneID 118436),DRSC20160,1.57e6,1.55e6,1.15e6,1.26e6,inactive
GAPsec (GeneID 38987),DRSC10564,1.35e6,1.50e6,1.19e6,1.17e6,inactive
Lrrk (GeneID 42447),DRSC15816,1.37e6,1.27e6,9.63e5,1.15e6,inactive
Ehbp1 (GeneID 36912),DRSC06561,1.44e6,1.40e6,1.23e6,1.20e6,inactive
CG8188 (GeneID 32751),DRSC20090,1.54e6,1.55e6,1.07e6,1.12e6,inactive
Taz (GeneID 36405),DRSC07704,1.60e6,1.62e6,1.16e6,1.26e6,inactive
CG17721 (GeneID 41354),DRSC15253,1.66e6,1.61e6,1.37e6,1.49e6,inactive
